Measured values as given in PubChem BioAssay AID1439 (NMMLSC, 2008).
Hit rate of the full screen: of about 220,000 compounds, about 770 (0.35%) were called active. This list was built around the results that the source calls inconclusive (neither active nor inactive); the mix of calls is not that of the screen. Rule as the data show it: active = binding response below about 49% or above about 150%; inconclusive = no clear call, values can overlap the other calls; inactive = in between.

The chains behind the UniProt entries cited, without tags or fusion partners.
UniProt P09471, whole entry, looked up: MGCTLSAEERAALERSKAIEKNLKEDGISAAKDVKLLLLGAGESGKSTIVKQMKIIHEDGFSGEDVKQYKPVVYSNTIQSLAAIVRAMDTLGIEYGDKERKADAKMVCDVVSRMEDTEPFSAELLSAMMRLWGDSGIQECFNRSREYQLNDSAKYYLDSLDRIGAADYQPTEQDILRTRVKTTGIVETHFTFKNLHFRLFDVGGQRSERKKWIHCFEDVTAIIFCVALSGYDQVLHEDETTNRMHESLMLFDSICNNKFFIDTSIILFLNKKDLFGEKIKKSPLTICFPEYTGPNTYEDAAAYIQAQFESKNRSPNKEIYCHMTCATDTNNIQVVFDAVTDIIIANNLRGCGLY

biological target: Guanine nucleotide-binding protein G(o) subunit alpha (Homo sapiens) (UniProt P09471); assay: RGS7-Galphao binding modulators, primary screen, biochemical, multiplexed bead flow cytometry (AID 1439); details: at 10 µM, actives lie on both sides;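 also: fluorescent Galphao held in activated GDP-AlF4 state binding bead-coupled RGS7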

Compound | binding response (% of control)
NC(=O)[C@@H]1CCNc2c(I)cc([N+](=O)[O-])cc2C(=O)N[C@@H](CCC(=O)O)C(=O)N[C@@H](CO)C(=O)N1 | inactive: 98.7%
CN1CCN(C(=O)c2cc(S(=O)(=O)Nc3ccccc3F)c(Cl)cc2Cl)CC1 | inconclusive: 50.3%
O=C1COc2ccc(C(=O)COC(=O)c3ccco3)cc2N1 | inconclusive: 42.7%
CC1(C)CC(CNCCC(c2ccc(F)cc2)c2ccco2)CCO1 (centres undefined) | inconclusive: 90.1%
COc1ccc(C2c3[nH]c4ccccc4c3CCN2CCCn2cccn2)c(F)c1 (centres undefined) | inconclusive: -3.34%
CCOC(=O)C(=O)Cc1nc2ccccc2s1 | inconclusive: 152%
Cc1cc(NC(=O)COC(=O)[C@@H](NS(=O)(=O)c2ccc(Br)cc2)C(C)C)no1 | inconclusive: 133%
CCOC(=O)/C(C#N)=C/c1cccc([N+](=O)[O-])c1 | inconclusive: 29.6%
COc1ccc(CN2CCN(C(=O)C3CCC(CNS(=O)(=O)c4ccc(C)cc4)CC3)CC2)c(OC)c1OC (centres undefined) | inactive: 105%
O=C(NCC(O)c1ccc([N+](=O)[O-])cc1)C1CCCCC1 (centres undefined) | inconclusive: 88%
CCN1CCN(C(=O)CCNC(=O)Cn2ccc3ccccc3c2=O)CC1 | inactive: 96.5%
O=C(NCc1ccc(Cl)cc1)c1ccc(CNc2c(N3CCOCC3)c(=O)c2=O)cc1 | inconclusive: 84.9%
COC(=O)CNC(c1ccccc1)c1cc(Br)ccc1NC(C)=O (centres undefined) | inactive: 78.9%
COC(=O)N/N=C/c1cc(N=Nc2ccccc2)ccc1O | inconclusive: 119%
O=C(Nc1nnc(SCc2c(Cl)cccc2Cl)s1)C1CC(=O)N(c2ccc3c(c2)OCCO3)C1 (centres undefined) | inconclusive: 101%
Cc1cc(N/N=C/c2cccc([N+](=O)[O-])c2)nc(-n2nc(C)cc2C)n1 | inconclusive: 19.8%
Cc1cc(C)n(C(=O)c2ccc([N+](=O)[O-])c(Cl)c2)n1 | inactive: 94.4%
C#CC(C)OC(=O)Nc1cnccc1C(F)(F)F (centres undefined) | inconclusive: 90.4%
C=CCn1c(=S)[nH]c2scc(-c3ccco3)c2c1=O | inconclusive: 12.3%
Oc1ccc(/C=N\Nc2nncc(-c3ccccc3)n2)cc1 | inconclusive: 90.1%
COC(=O)Cc1ccc(NC(=S)NCCO)cc1 | inconclusive: 100%
O=C(O)CC1(CC(=O)NCc2ccc(-c3cccs3)cc2)CCCCC1 | inconclusive: 91.4%
O=C(N/N=C/c1sc(N2CCOCC2)nc1-c1ccccc1)c1cccc(S(=O)(=O)N2CCOCC2)c1 | inconclusive: 43.3%
Cc1cccc2[nH]c(CN(C)C(=O)CC3C(=O)NCCN3CC(C)(C)C)nc12 (centres undefined) | inactive: 106%

Two entries from above, in CSV form:
Compound,binding response (% of control)
NC(=O)[C@@H]1CCNc2c(I)cc([N+](=O)[O-])cc2C(=O)N[C@@H](CCC(=O)O)C(=O)N[C@@H](CO)C(=O)N1,inactive: 98.7%
CC1(C)CC(CNCCC(c2ccc(F)cc2)c2ccco2)CCO1 (centres undefined),inconclusive: 90.1%
